Source: the supplement of paper PMC10849652
This is one part of the list.

Protein sequences, listed by entry. Tags and fused reporters are not part of them. Lines headed by an entry give the natural chain unless they say otherwise; changes in a name come on top.
UniProt O75608: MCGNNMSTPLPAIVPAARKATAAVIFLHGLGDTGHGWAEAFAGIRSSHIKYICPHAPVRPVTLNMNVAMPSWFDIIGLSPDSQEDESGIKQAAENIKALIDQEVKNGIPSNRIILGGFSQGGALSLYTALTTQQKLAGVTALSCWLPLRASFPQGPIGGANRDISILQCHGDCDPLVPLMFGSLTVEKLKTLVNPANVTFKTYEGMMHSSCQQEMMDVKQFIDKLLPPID
UniProt Q96GA3: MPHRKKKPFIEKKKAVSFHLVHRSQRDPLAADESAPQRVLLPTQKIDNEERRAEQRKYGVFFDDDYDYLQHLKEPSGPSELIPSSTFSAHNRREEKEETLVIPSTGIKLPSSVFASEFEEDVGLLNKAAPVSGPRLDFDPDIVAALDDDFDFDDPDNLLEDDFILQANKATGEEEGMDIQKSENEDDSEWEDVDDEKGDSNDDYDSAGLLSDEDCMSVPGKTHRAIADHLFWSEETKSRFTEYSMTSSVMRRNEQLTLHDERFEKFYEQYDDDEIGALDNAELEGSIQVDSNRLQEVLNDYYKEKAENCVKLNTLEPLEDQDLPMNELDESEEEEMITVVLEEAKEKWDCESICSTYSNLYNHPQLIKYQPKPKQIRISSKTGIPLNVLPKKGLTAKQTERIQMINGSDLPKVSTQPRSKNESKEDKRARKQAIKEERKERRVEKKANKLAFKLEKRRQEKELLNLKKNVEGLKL
UniProt P56192: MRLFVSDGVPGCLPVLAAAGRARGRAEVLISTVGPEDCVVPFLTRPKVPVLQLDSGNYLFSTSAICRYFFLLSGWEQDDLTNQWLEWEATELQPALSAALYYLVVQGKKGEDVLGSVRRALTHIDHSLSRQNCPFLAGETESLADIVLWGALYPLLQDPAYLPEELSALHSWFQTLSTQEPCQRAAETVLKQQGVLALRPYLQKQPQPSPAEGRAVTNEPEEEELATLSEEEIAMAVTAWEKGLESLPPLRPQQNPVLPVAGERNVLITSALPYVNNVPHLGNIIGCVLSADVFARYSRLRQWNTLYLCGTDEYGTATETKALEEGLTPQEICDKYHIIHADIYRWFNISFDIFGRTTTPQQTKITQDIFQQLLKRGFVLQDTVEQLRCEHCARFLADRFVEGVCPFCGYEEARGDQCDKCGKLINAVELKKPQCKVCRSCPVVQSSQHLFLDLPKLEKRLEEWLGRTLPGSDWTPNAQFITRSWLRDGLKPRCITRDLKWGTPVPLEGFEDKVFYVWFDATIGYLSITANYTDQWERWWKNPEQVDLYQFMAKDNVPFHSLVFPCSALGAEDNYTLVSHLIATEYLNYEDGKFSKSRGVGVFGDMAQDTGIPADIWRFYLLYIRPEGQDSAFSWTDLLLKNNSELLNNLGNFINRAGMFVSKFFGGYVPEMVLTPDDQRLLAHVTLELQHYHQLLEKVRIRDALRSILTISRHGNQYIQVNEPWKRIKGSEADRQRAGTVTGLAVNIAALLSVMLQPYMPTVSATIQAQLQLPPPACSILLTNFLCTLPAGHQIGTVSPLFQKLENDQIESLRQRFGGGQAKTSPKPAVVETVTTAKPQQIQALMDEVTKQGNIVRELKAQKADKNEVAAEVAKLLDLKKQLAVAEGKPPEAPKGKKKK
UniProt Q5U5X0: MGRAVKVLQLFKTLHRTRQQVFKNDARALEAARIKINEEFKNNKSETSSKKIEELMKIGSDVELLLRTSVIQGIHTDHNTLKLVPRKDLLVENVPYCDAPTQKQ
UniProt O15021: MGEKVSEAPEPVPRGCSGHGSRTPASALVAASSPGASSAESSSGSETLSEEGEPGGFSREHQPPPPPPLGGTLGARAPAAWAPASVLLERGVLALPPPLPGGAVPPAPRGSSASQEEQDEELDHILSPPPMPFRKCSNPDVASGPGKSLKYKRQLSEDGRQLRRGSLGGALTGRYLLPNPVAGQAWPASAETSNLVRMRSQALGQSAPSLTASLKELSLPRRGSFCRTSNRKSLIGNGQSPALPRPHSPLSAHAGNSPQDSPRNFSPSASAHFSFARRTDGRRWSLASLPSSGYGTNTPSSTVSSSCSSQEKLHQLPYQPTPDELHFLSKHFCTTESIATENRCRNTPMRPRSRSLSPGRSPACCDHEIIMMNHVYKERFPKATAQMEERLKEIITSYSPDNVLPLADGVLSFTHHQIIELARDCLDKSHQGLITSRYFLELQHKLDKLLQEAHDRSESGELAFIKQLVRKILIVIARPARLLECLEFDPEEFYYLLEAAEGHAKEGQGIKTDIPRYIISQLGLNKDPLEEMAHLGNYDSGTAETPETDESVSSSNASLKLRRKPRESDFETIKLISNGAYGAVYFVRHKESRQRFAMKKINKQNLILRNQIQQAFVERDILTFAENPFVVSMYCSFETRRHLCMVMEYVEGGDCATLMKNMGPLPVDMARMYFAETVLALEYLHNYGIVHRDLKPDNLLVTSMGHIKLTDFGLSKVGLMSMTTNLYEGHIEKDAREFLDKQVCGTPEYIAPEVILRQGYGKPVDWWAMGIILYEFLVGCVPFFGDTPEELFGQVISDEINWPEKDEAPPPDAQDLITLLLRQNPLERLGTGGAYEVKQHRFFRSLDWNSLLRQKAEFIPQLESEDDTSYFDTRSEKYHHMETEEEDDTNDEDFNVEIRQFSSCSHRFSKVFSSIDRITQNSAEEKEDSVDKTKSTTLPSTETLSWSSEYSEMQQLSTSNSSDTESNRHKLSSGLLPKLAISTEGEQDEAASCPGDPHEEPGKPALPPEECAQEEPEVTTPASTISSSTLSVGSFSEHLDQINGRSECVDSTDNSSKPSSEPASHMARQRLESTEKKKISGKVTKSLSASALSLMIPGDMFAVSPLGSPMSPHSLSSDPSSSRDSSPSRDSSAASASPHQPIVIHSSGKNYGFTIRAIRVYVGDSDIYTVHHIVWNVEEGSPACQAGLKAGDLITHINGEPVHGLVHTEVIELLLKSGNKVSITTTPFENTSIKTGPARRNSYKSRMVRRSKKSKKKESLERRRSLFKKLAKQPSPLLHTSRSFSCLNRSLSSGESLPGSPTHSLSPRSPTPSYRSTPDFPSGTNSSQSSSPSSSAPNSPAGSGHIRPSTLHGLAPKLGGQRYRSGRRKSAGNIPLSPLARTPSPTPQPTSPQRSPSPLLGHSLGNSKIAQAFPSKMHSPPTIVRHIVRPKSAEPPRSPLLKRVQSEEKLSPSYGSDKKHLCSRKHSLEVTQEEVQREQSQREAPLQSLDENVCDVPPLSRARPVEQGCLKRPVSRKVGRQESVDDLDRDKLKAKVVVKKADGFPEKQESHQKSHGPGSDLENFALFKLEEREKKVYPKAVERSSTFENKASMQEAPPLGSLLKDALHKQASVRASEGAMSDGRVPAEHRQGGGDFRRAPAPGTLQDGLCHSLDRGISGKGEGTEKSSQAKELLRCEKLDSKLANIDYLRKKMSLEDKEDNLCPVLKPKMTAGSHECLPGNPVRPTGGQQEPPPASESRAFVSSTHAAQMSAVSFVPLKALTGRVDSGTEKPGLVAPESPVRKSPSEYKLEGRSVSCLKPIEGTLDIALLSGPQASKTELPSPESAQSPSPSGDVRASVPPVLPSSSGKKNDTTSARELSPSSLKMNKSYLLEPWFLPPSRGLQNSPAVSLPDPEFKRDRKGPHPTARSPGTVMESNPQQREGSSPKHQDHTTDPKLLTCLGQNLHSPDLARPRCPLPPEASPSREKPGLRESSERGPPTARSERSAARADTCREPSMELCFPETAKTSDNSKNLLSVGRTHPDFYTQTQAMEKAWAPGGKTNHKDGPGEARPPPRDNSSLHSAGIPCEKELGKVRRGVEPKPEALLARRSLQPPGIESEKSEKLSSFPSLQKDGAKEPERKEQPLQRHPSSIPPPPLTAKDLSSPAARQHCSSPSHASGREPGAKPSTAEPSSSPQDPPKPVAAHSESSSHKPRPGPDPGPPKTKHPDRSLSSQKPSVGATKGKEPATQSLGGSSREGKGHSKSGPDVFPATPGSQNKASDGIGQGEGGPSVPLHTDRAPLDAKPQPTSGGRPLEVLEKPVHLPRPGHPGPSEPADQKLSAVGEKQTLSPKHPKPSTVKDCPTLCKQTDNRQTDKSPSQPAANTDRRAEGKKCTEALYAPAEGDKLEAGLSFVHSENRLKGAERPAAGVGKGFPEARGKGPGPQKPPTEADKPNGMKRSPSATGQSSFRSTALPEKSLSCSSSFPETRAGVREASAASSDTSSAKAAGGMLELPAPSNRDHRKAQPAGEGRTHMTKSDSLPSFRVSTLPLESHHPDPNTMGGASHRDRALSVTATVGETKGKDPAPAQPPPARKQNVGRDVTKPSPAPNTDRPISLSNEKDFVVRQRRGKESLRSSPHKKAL
UniProt Q8WZA0: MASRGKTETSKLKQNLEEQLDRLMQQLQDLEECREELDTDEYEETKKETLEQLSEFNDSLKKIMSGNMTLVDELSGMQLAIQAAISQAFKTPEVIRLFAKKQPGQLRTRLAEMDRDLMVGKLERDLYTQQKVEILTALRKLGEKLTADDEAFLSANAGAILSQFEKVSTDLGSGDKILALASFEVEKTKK
UniProt P27816: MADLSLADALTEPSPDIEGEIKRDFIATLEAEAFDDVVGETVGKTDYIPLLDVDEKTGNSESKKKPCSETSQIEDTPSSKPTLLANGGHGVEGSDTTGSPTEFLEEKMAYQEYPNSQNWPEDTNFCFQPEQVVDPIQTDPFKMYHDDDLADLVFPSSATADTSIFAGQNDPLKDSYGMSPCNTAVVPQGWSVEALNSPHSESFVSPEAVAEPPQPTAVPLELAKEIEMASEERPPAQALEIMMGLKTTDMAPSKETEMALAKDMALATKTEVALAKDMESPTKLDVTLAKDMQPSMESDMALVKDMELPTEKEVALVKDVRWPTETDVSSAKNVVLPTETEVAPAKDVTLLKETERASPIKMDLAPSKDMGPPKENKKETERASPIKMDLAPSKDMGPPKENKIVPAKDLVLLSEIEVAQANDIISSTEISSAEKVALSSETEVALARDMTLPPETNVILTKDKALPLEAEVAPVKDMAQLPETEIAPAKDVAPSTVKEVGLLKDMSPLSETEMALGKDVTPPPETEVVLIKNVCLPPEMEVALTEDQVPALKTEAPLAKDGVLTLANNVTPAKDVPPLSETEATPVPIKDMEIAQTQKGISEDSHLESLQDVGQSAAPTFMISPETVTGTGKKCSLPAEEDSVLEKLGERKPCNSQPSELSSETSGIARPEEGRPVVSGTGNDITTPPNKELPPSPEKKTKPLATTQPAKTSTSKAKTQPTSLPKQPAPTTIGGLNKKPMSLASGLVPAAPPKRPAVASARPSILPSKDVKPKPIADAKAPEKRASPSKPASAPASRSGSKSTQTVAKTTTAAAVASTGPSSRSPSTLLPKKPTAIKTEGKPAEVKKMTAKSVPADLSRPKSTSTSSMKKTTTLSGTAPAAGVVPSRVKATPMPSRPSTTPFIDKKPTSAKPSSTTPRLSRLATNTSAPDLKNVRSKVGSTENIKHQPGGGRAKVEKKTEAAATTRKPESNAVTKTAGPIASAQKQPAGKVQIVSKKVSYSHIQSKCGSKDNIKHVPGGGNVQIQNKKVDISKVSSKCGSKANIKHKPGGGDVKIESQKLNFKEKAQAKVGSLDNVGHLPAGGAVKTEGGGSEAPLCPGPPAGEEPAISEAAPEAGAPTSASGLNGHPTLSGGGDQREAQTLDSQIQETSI
UniProt O14733: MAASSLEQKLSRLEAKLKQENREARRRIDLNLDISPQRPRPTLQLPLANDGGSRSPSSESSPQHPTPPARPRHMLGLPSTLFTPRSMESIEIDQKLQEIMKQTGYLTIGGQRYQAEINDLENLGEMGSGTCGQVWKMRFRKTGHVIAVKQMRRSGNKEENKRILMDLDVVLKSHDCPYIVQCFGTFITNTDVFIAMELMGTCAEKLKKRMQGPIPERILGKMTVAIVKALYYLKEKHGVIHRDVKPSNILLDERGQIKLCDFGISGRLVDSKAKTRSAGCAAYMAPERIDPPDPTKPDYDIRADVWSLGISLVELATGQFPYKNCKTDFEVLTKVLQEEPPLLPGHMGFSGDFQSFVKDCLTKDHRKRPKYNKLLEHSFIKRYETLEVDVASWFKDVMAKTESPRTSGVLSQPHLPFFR

Legend:
Experiment in all cases: log2 fold change, soluble protein after heating vs DMSO (PISA); higher = thermal stabilisation; K562 lysate, 10 uM; active = over 0.2 and 3.5 SD of the protein, either way, in both replicates (recomputed)
lapatinib = compound: CS(=O)(=O)CCNCc1ccc(-c2ccc3ncnc(Nc4ccc(OCc5cccc(F)c5)c(Cl)c4)c3c2)o1 [lapatinib]
In short: (§1)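 Values give the log-two fold change in thermal stability against solvent controls, from duplicates. Crude K562 extract at 1 mg/mL protein, made by dounce homogenisation in PBS pH 7.4 with 1 mM MgCl2, was treated with 10 μM compound for 30 min. After 3 min heating across 48°C-58°C, aliquots were pooled, adjusted to 0.5% NP-40 at 4°C and centrifuged at 21,000xg for 90 min. The supernatant was measured by TMTpro 16plex LC-MS/MS with channel sums equalised.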

pictilisib = compound: CS(=O)(=O)N1CCN(Cc2cc3nc(-c4cccc5[nH]ncc45)nc(N4CCOCC4)c3s2)CC1 [pictilisib]
In short: as §1

crizotinib = compound: C[C@@H](Oc1cc(-c2cnn(C3CCNCC3)c2)cnc1N)c1c(Cl)ccc(F)c1Cl [crizotinib]
In short: as §1

[1] = compound: C[C@H](C1=CC=C(C=C1)C(=O)NC2=C3C=CNC3=NC=C2)N
In short: as §1

duvelisib = compound: C[C@H](Nc1ncnc2nc[nH]c12)c1cc2cccc(Cl)c2c(=O)n1-c1ccccc1 [duvelisib]
In short: as §1

gandotinib = compound: Cc1cc(Nc2cc(CN3CCOCC3)c3nc(C)c(Cc4ccc(Cl)cc4F)n3n2)n[nH]1 [gandotinib]
In short: as §1

tozasertib = compound: Cc1cc(Nc2cc(N3CCN(C)CC3)nc(Sc3ccc(NC(=O)C4CC4)cc3)n2)n[nH]1 [tozasertib]
In short: as §1

doramapimod = compound: Cc1ccc(-n2nc(C(C)(C)C)cc2NC(=O)Nc2ccc(OCCN3CCOCC3)c3ccccc23)cc1 [doramapimod]
In short: as §1

bafetinib = compound: Cc1ccc(NC(=O)c2ccc(CN3CC[C@H](N(C)C)C3)c(C(F)(F)F)c2)cc1Nc1nccc(-c2cncnc2)n1 [bafetinib]
In short: as §1

[2] = compound: Cc1cccc(CC(=O)N2CCc3c2ccc(-c2cn(C)c4ncnc(N)c24)c3F)n1
In short: as §1

nilotinib = compound: Cc1cn(-c2cc(NC(=O)c3ccc(C)c(Nc4nccc(-c5cccnc5)n4)c3)cc(C(F)(F)F)c2)cn1 [nilotinib]
In short: as §1

[3] = compound: Cc1nc(Nc2n[nH]c3c2CN(C(=O)N[C@H](CN(C)C)c2ccccc2)C3(C)C)c2sccc2n1
In short: as §1

dasatinib = compound: Cc1nc(Nc2ncc(C(=O)Nc3c(C)cccc3Cl)s2)cc(N2CCN(CCO)CC2)n1 [dasatinib]
In short: as §1

[4] = compound: Cc1ncc(-c2ccnc(Nc3ccc(S(C)(=O)=O)cc3)n2)n1C(C)C
In short: as §1

[5] = compound: Cn1cc(-c2ccc3c(c2)CCN3C(=O)Cc2cccc(C(F)(F)F)c2)c2c(N)ncnc21
In short: as §1

quisinostat = compound: Cn1cc(CNCC2CCN(c3ncc(C(=O)NO)cn3)CC2)c2ccccc21 [quisinostat]
In short: as §1

tipifarnib = compound: Cn1cncc1[C@@](N)(c1ccc(Cl)cc1)c1ccc2c(c1)c(-c1cccc(Cl)c1)cc(=O)n2C [tipifarnib]
In short: as §1

[6] = compound: NC(=O)Nc1cc(-c2cccc(F)c2)sc1C(=O)N[C@H]1CCCNC1
In short: as §1

[7] = compound: NC(=O)c1cnc(N[C@@H]2CCCC[C@@H]2N)nc1Nc1cccc(-n2nccn2)c1
In short: as §1

[8] = compound: NC1(c2ccc(-c3nc4ccn5c(=O)[nH]nc5c4cc3-c3ccccc3)cc2)CCC1
In short: as §1

Measured: log2 fold change

MAN2A1 (UniProt Q16706)
inactive: lapatinib 0.036 | pictilisib -0.007 | crizotinib 0 | [1] -0.019 | duvelisib 0.01 | gandotinib -0.023 | tozasertib 0.025 | doramapimod -0.006 | bafetinib 0.008 | [2] -0.017 | nilotinib 0.026 | [3] -0.022 | dasatinib -0.015 | [4] -0.001 | [5] 0.016 | quisinostat -0.01 | tipifarnib -0.032 | [6] 0.019 | [7] -0.002 | [8] 0.008

LYPLA1 (UniProt O75608)
inactive: lapatinib 0.001 | pictilisib 0.035 | crizotinib 0.029 | [1] 0.077 | duvelisib -0.015 | gandotinib -0.077 | tozasertib 0.047 | doramapimod 0.012 | bafetinib -0.018 | [2] -0.074 | nilotinib 0.01 | [3] 0.034 | dasatinib -0.006 | [4] 0.018 | [5] 0.033 | quisinostat 0.038 | tipifarnib 0.054 | [6] -0.009 | [7] -0.024 | [8] -0.007

LTV1 (UniProt Q96GA3)
inactive: lapatinib 0.004 | pictilisib 0.002 | crizotinib 0.013 | [1] 0.041 | duvelisib -0.009 | gandotinib -0.025 | tozasertib -0.003 | doramapimod -0.044 | bafetinib -0.021 | [2] -0.034 | nilotinib -0.029 | [3] 0.022 | dasatinib 0.052 | [4] -0.035 | [5] 0.019 | quisinostat 0.026 | tipifarnib -0.001 | [6] -0.003 | [7] -0.011 | [8] -0.021

MARS (UniProt P56192)
inactive: lapatinib -0.004 | pictilisib 0.017 | crizotinib -0.048 | [1] -0.001 | duvelisib -0.009 | gandotinib -0.061 | tozasertib 0.003 | doramapimod 0.025 | bafetinib -0.051 | [2] 0.045 | nilotinib 0 | [3] -0.002 | dasatinib -0.051 | [4] -0.009 | [5] 0.02 | quisinostat -0.056 | tipifarnib -0.015 | [6] 0.045 | [7] 0.005 | [8] -0.015

LYRM7 (UniProt Q5U5X0)
inactive: lapatinib 0.018 | pictilisib -0.059 | crizotinib 0.018 | [1] -0.018 | duvelisib -0.066 | gandotinib 0.033 | tozasertib -0.007 | doramapimod -0.024 | bafetinib -0.013 | [2] -0.027 | nilotinib -0.02 | [3] -0.03 | dasatinib 0.004 | [4] 0.079 | [5] 0.011 | quisinostat 0.025 | tipifarnib 0.012 | [6] 0.021 | [7] 0.009 | [8] 0.047

LTBP4 (UniProt Q8N2S1)
inactive: lapatinib 0.068 | pictilisib -0.073 | crizotinib -0.074 | [1] -0.119 | duvelisib 0.021 | gandotinib 0.2 | tozasertib 0.015 | doramapimod -0.029 | bafetinib 0.129 | [2] 0.062 | nilotinib -0.094 | [3] -0.095 | dasatinib 0.076 | [4] 0.101 | [5] -0.027 | quisinostat -0.056 | tipifarnib 0.061 | [6] 0.051 | [7] -0.01 | [8] -0.005

MAST4 (UniProt O15021)
inactive: lapatinib -0.12 | pictilisib 0.122 | crizotinib 0.079 | [1] -0.065 | duvelisib -0.089 | gandotinib 0.374 | tozasertib 0.274 | doramapimod -0.121 | bafetinib -0.103 | [2] 0.017 | nilotinib -0.078 | [3] 0.114 | dasatinib 0.001 | [4] 0.08 | [5] 0.04 | quisinostat 0.104 | tipifarnib 0.012 | [6] 0.073 | [7] 0.021 | [8] 0.059

MAML2 (UniProt Q8IZL2)
inactive: lapatinib 0.023 | pictilisib 0.139 | crizotinib 0.003 | [1] -0.042 | duvelisib 0.045 | gandotinib 0.037 | tozasertib -0.029 | doramapimod 0.05 | bafetinib 0.009 | [2] 0.025 | nilotinib 0.055 | [3] 0.073 | dasatinib 0.081 | [4] 0.031 | [5] 0.033 | quisinostat -0.114 | tipifarnib 0.015 | [6] 0.016 | [7] -0.202 | [8] -0.008

2 consecutive entries from above, quoted:
LTBP4 (UniProt Q8N2S1)
inactive: lapatinib 0.068 | pictilisib -0.073 | crizotinib -0.074 | [1] -0.119 | duvelisib 0.021 | gandotinib 0.2 | tozasertib 0.015 | doramapimod -0.029 | bafetinib 0.129 | [2] 0.062 | nilotinib -0.094 | [3] -0.095 | dasatinib 0.076 | [4] 0.101 | [5] -0.027 | quisinostat -0.056 | tipifarnib 0.061 | [6] 0.051 | [7] -0.01 | [8] -0.005

MAST4 (UniProt O15021)
inactive: lapatinib -0.12 | pictilisib 0.122 | crizotinib 0.079 | [1] -0.065 | duvelisib -0.089 | gandotinib 0.374 | tozasertib 0.274 | doramapimod -0.121 | bafetinib -0.103 | [2] 0.017 | nilotinib -0.078 | [3] 0.114 | dasatinib 0.001 | [4] 0.08 | [5] 0.04 | quisinostat 0.104 | tipifarnib 0.012 | [6] 0.073 | [7] 0.021 | [8] 0.059

(listing goes on)

MAGI1 isoform 6 (UniProt Q96QZ7)
inactive: lapatinib -0.023 | pictilisib -0.002 | crizotinib -0.005 | [1] -0.059 | duvelisib 0.017 | gandotinib -0.127 | tozasertib -0.016 | doramapimod 0.056 | bafetinib 0.033 | [2] 0.027 | nilotinib -0.032 | [3] -0.024 | dasatinib -0.015 | [4] -0.033 | [5] 0.005 | quisinostat -0.004 | tipifarnib 0.043 | [6] -0.037 | [7] -0.018 | [8] 0.01

MAEA (UniProt Q7L5Y9)
inactive: lapatinib 0.012 | pictilisib -0.06 | crizotinib -0.02 | [1] -0.003 | duvelisib 0.026 | gandotinib -0.039 | tozasertib 0.019 | doramapimod -0.029 | bafetinib -0.043 | [2] -0.022 | nilotinib 0.017 | [3] -0.017 | dasatinib 0.006 | [4] 0.018 | [5] 0.083 | quisinostat -0.035 | tipifarnib 0.014 | [6] 0.066 | [7] 0.004 | [8] 0.035

MAD2L1 (UniProt Q13257)
inactive: lapatinib -0.015 | pictilisib 0.011 | crizotinib -0.024 | [1] -0.184 | duvelisib 0 | gandotinib 0.039 | tozasertib 0 | doramapimod 0.028 | bafetinib -0.066 | [2] 0.043 | nilotinib -0.011 | [3] -0.004 | dasatinib -0.011 | [4] -0.029 | [5] -0.013 | quisinostat -0.101 | tipifarnib -0.006 | [6] 0.008 | [7] -0.02 | [8] -0.011

MAP1A (UniProt P78559)
inactive: lapatinib -0.001 | pictilisib 0.008 | crizotinib -0.005 | [1] -0.011 | duvelisib 0.017 | gandotinib 0.012 | tozasertib -0.009 | doramapimod -0.024 | bafetinib -0.045 | [2] 0.004 | nilotinib -0.005 | [3] 0.003 | dasatinib -0.012 | [4] 0.009 | [5] 0.002 | quisinostat -0.023 | tipifarnib 0.012 | [6] 0.022 | [7] -0.001 | [8] -0.002

LZIC isoform 2 (UniProt Q8WZA0)
inactive: lapatinib -0.006 | pictilisib 0.009 | crizotinib 0.041 | [1] 0.001 | duvelisib 0.035 | gandotinib 0.026 | tozasertib -0.013 | doramapimod -0.022 | bafetinib -0.031 | [2] -0.037 | nilotinib 0.003 | [3] 0.019 | dasatinib 0.027 | [4] 0.025 | [5] -0.002 | quisinostat 0.072 | tipifarnib -0.008 | [6] -0.046 | [7] 0.007 | [8] 0.009

MAPRE2 (UniProt Q15555)
inactive: lapatinib -0.003 | pictilisib 0.009 | crizotinib -0.026 | [1] 0.119 | duvelisib -0.01 | gandotinib -0.057 | tozasertib -0.016 | doramapimod 0.02 | bafetinib -0.005 | [2] -0.03 | nilotinib -0.022 | [3] 0.012 | dasatinib -0.021 | [4] -0.019 | [5] 0.012 | quisinostat 0.025 | tipifarnib 0.042 | [6] 0.017 | [7] 0.025 | [8] 0.016

MAP4 (UniProt P27816)
inactive: lapatinib -0.002 | pictilisib 0.012 | crizotinib 0.013 | [1] -0.032 | duvelisib -0.004 | gandotinib 0.058 | tozasertib -0.014 | doramapimod -0.044 | bafetinib 0.018 | [2] -0.007 | nilotinib -0.002 | [3] -0.001 | dasatinib 0.013 | [4] 0.016 | [5] -0.036 | quisinostat -0.001 | tipifarnib 0.012 | [6] -0.034 | [7] -0.011 | [8] -0.003

MAP2K7 isoform 4 (UniProt O14733)
inactive: lapatinib 0.004 | pictilisib 0.204 | crizotinib -0.05 | [1] 0.081 | duvelisib -0.048 | gandotinib -0.042 | tozasertib -0.04 | doramapimod 0.052 | bafetinib -0.06 | [2] 0.002 | nilotinib 0.017 | [3] -0.101 | dasatinib -0.093 | [4] 0 | [5] 0.22 | quisinostat 0.001 | tipifarnib -0.024 | [6] 0.033 | [7] 0.001 | [8] 0.002
